Measured values as given in the supplement of paper PMC3741180, “A Novel High Throughput Biochemical Assay to Evaluate the HuR Protein-RNA Complex Formation” (PLoS ONE, 2013).
Some of the results follow. Repeats in this data set agree poorly, so a single value says little.

Protein sequences, listed by entry. Tags and fused reporters are not part of them.
UniProt Q15717, whole entry: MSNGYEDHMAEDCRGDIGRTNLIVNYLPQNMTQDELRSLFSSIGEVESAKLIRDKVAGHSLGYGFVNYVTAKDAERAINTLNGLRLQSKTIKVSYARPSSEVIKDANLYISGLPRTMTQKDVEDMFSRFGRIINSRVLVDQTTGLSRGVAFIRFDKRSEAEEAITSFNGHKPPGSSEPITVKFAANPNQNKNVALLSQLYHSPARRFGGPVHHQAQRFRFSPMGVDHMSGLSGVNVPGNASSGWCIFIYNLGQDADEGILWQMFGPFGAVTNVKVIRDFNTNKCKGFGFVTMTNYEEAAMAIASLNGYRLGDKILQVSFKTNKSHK

molecular target: HuR (ELAVL1) - TNFalpha ARE RNA complex (UniProt Q15717); test: AlphaScreen HuR-RNA complex signal Z-score relative to positive (Bi-TNF, DMSO) controls (Z-score (SD units of positive control)); higher = more complex signal; settings: screen stage: primary screen; compound concentration: 25 nM

Question: COc1ccc([C@H]2Oc3cc(OC)cc(OC)c3C[C@H]2O)cc1 was tested. Which “AlphaScreen HuR-RNA complex signal Z-score” value did it give?
Answer: 2.77

Question: How did the “AlphaScreen HuR-RNA complex signal Z-score” value turn out when CC[C@]12CCCN3CCc4c(n(c5ccccc45)[C@@](O)(C(=O)OC)C1)[C@@H]32 was run?
Answer: 0.89

Question: How did the “AlphaScreen HuR-RNA complex signal Z-score” value turn out when COc1ccc2c(c1)OCC(Cc1ccc(OC)c(OC)c1)C2=O (centres undefined) was run?
Answer: 2.39

Question: Which “AlphaScreen HuR-RNA complex signal Z-score” value does the source give for Cc1cc(O)cc(=O)o1 here?
Answer: 1.14

Question: How did the “AlphaScreen HuR-RNA complex signal Z-score” value turn out when S=P(N1CC1)(N1CC1)N1CC1 was run?
Answer: 0.241

Question: CC(C)[C@@H]1CC[C@@H](C)C[C@H]1OC(=O)c1ccccc1 was tested. Which “AlphaScreen HuR-RNA complex signal Z-score” value did it give?
Answer: 2.89

Question: CC(=O)O[C@H]1CC[C@]2(C)[C@H]3CC=C4[C@@H]5CC(C)(C)CC[C@]5(C(=O)O)CC[C@@]4(C)[C@]3(C)CC[C@H]2C1(C)C was tested. Which “AlphaScreen HuR-RNA complex signal Z-score” value did it give?
Answer: 1.75

Question: CC1CCc2cc(F)cc3c(=O)c(C(=O)O)cn1c23 (centres undefined) was tested. Which “AlphaScreen HuR-RNA complex signal Z-score” value did it give?
Answer: 0.732

Question: COc1cc2c(cc1OC)-c1c(oc3cc(O)cc(O)c3c1=O)CO2 was tested. Which “AlphaScreen HuR-RNA complex signal Z-score” value did it give?
Answer: 2.99

Question: Which “AlphaScreen HuR-RNA complex signal Z-score” value does the source give for CCCCOc1ccc(OCCCN2CCOCC2)cc1 here?
Answer: 0.775

Question: COC(=O)/C(=C1/OC(=O)C(c2ccccc2)=C1O)c1ccccc1 was tested. Which “AlphaScreen HuR-RNA complex signal Z-score” value did it give?
Answer: 1.16

Question: For COc1c(O)cc2c(c1O)[C@@H]1O[C@H](CO)[C@@H](O)[C@H](O)[C@H]1OC2=O, which “AlphaScreen HuR-RNA complex signal Z-score” value is on record?
Answer: 0.341

Question: COC(=O)[C@@H]1OC(=O)C2OC23[C@@]1(C)CCC1[C@]2(C)C(C[C@@H](O)[C@]13C)C(C)(C)[C@H](OC(C)=O)C[C@@H]2OC(C)=O (some centres undefined) was tested. Which “AlphaScreen HuR-RNA complex signal Z-score” value did it give?
Answer: 1.56

Question: Which “AlphaScreen HuR-RNA complex signal Z-score” value does the source give for COc1ccc(C(C)=O)c(O)c1 here?
Answer: 0.0253

Question: COc1cc(-c2coc3cc(OCc4ccccc4)c(OC)c(O)c3c2=O)cc(O)c1OC was tested. Which “AlphaScreen HuR-RNA complex signal Z-score” value did it give?
Answer: 1.33

Question: Which “AlphaScreen HuR-RNA complex signal Z-score” value does the source give for CC(C)=CCc1c(O)cc2occ(-c3ccc4c(c3)OCO4)c(=O)c2c1O here?
Answer: 1.19

Question: Which “AlphaScreen HuR-RNA complex signal Z-score” value does the source give for CCn1cc(C(=O)O)c(=O)c2cc(F)c(N3CCNCC3)cc21 here?
Answer: 1.91

Question: How did the “AlphaScreen HuR-RNA complex signal Z-score” value turn out when O=c1c(O)c(-c2ccc(O)c(O)c2)oc2c(O[C@@H]3O[C@H](CO)[C@@H](O)[C@H](O)[C@H]3O)c(O)cc(O)c12 was run?
Answer: 1.4

Question: Which “AlphaScreen HuR-RNA complex signal Z-score” value does the source give for CC(=O)O[C@H]1C[C@@H](OC(C)=O)C(C)(C)C2CC(=O)[C@]3(C)C(CC[C@@]4(C)[C@H](C(=O)O)OC(=O)C5OC543)[C@]21C (some centres undefined) here?
Answer: 2.14

Question: How did the “AlphaScreen HuR-RNA complex signal Z-score” value turn out when CCCCCCCCCCCCCCCCC(C(=O)O)C(O)(CC(=O)O)C(=O)O (centres undefined) was run?
Answer: 0.677

Question: With CCOC(=O)C1=C(C)NC(C)=C(C(=O)OC)C1c1cccc([N+](=O)[O-])c1 (centres undefined) as the molecule, how does the “AlphaScreen HuR-RNA complex signal Z-score” value read?
Answer: 0.418

Question: How did the “AlphaScreen HuR-RNA complex signal Z-score” value turn out when CC1(C)S[C@@H]2[C@H](N3C(=O)[C@@H](c4ccccc4)NC3(C)C)C(=O)N2[C@H]1C(=O)O was run?
Answer: -2.04

Question: For CC(CN1c2ccccc2Sc2ccccc21)N(C)C (centres undefined), which “AlphaScreen HuR-RNA complex signal Z-score” value is on record?
Answer: 11.3

Question: With C=C1[C@H]2CC[C@@]3(C)[C@H](c4ccoc4)OC(=O)C[C@]13O[C@H]1C[C@H](O)C(C)(C)[C@H](CC(=O)OC)[C@]12C [3-DEOXY-3beta-HYDROXYANGOLENSIC ACID METHYL ESTER] as the molecule, how does the “AlphaScreen HuR-RNA complex signal Z-score” value read?
Answer: 0.982
